# Assay results from patent US20060276393A1, “Novel compositions for preventing and treating neurodegenerative and blood coagulation disorders” (Sirtris Pharmaceuticals, Inc., priority 2005, published 2006).
# Legend:
# C. elegans = C. elegans fecundity and feeding rate; assay type: in vivo
# D. melanogaster = D. melanogaster fecundity, feeding and body mass; assay type: in vivo
compound,measurement,setting,value
"Oc1ccc(/C=C/c2cc(O)cc(O)c2)cc1 [Resveratrol, 3,5,4′-Trihydroxy-trans-stilbene]",Fecundity of adult hermaphrodites,"C. elegans; 100 μM, controls 106",99 eggs/5 worms/5 hours
same,Feeding rate,"C. elegans; Adult on live OP50, 100 μM, control 383±16.0",383±2.7 pumps/min
same,Feeding rate,"C. elegans; LA larval on live OP50, 100 μM, control 310±10.2",315±9.8 pumps/min
same,egg production,"D. melanogaster; 10 μM resveratrol, Canton-S, 15% SY, control 59.9",69.8 eggs/5 days
same,body weight,"D. melanogaster; 10 μM, 15% SY diet",maintained normal weight
same,food uptake,"D. melanogaster; crop-filling assay, yw females",no decrease in food uptake
